Laboratory results reported in ChEMBL document CHEMBL4513139, “CO-ADD screening of University of Strathclyde (UK) compounds”.
The other results are listed elsewhere or left out. Measured potencies and affinities stand elsewhere.

system: Acinetobacter baumannii; conditions: Concentration 32 ug.mL-1; ASSAY_TEST Inhibition of Bacterial Growth; detection method Absorption (OD600); MEDIA CAMHB; plate type 384well; NBS; CORNING #3640; time 18 hr

Going from Cc1ncc(CNc2ccc(C(C)(C)C)cc2)c(N)n1 to Cc1ncc(CNc2ccc(C(F)(F)F)cc2)c(N)n1, the Inhibition falls from 17% to 11.1%.

First: CC(C)CCc1sc(NC(=O)c2cc(NC(=O)c3cc(NC(=O)CCC(=O)O)cn3C)cn2C)nc1C(=O)NCCCN(C)C.O=C(O)C(F)(F)F
Second: CC(C)CCc1sc(NC(=O)c2cc(NC(=O)c3cc(NC(=O)c4ccc(C(=O)O)cc4)cn3C)cn2C)nc1C(=O)NCCCN(C)C.O=C(O)C(F)(F)F
The Inhibition of the first is lower: -3.32% for the first, 4.95% for the second.

Compared with Cc1ncc(CNc2ccc(F)cc2)c(N)n1, Cc1ncc(CNc2ccc(Cl)cc2)c(N)n1 is higher in Inhibition: 2.07% for the first, 7.56% for the second.

Compared with CC(C)CCc1sc(NC(=O)c2cc(NC(=O)c3ccc(/C=C/c4cc5ccccc5nc4On4nnc5ccccc54)cc3)cn2C)nc1C(=O)NCCN1CCOCC1.O=C(O)C(F)(F)F, CC(C)CCc1sc(NC(=O)c2cc(NC(=O)c3ccc(/C=C/c4cc5ccccc5nc4Cl)cc3)cn2C)nc1C(=O)NCCN1CCOCC1.O=C(O)C(F)(F)F is lower in Inhibition: 11.1% for the first, -1.23% for the second.

First: COC(=O)CCC(=O)Nc1cc(C(=O)Nc2cc(C(=O)NCCCN(C)C)n(C)c2)n(C)c1.O=C(O)C(F)(F)F
Second: CN(C)CCCNC(=O)c1cc(NC(=O)c2cc(NC(=O)CCC(=O)O)cn2C)cn1C.O=C(O)C(F)(F)F
The Inhibition of the first is lower: 12.86% for the first, 14.21% for the second.

Compared with Cn1cc(NC(=O)c2cc(NC(=O)c3sc(N)nc3C(F)(F)F)cn2C)cc1C(=O)NCCN1CCOCC1.O=C(O)C(F)(F)F, CC(C)c1sc(N)nc1C(=O)Nc1cc(C(=O)Nc2cc(C(=O)NCCN3CCOCC3)n(C)c2)n(C)c1.O=C(O)C(F)(F)F is lower in Inhibition: 8.06% for the first, -4.64% for the second.

First: COCCOC1CCN(C(=O)c2cc(NC(=O)c3cc(NC(=O)c4ccc(/C=C/c5ccc(OC)cc5)cc4)cn3C)cn2C)CC1.O=S(=O)(O)O
Second: COCCOC1CCN(C(=O)c2cc(NC(=O)c3cc(NC(=O)c4ccc(/C=C/c5cnc6ccccc6c5)cc4)cn3C)cn2C)CC1
The Inhibition of the first is lower: 5.25% for the first, 8.98% for the second.

Going from Cn1cc(NC(=O)c2cc(NC(=O)c3ccc(/C=C/c4cccc(F)c4)cc3)cn2C)cc1C(=O)NCCN1CCOCC1.O=C(O)C(F)(F)F to COC(=O)c1ccc(C(=O)Nc2cc(C(=O)Nc3cc(C(=O)NCCN4CCOCC4)n(C)c3)n(C)c2)cc1.O=C(O)C(F)(F)F, the Inhibition rises from 5.74% to 20.48%.

First: COc1cccc(C(=N)Nc2cc(C(=O)Nc3cc(C(=O)Nc4cn(CCCN(C)C)cn4)n(C)c3)n(C)c2)c1.O=C(O)C(F)(F)F.O=C(O)C(F)(F)F
Second: COc1cccc(C(=O)Nc2cc(C(=O)Nc3cc(C(=O)Nc4cn(CCCN(C)C)cn4)n(C)c3)n(C)c2)c1.O=C(O)C(F)(F)F
The Inhibition of the first is higher: 13.2% for the first, 12.51% for the second.

Going from COC(=O)c1ccc(C(=O)Nc2cc(C(=O)Nc3cc(C(=O)NCCC(=N)N)n(C)c3)n(C)c2)cc1.O=C(O)C(F)(F)F to COC(=O)c1ccc(C(=O)Nc2cc(C(=O)Nc3cc(C(=O)NCCCN(C)C)n(C)c3)n(C)c2)cc1.O=C(O)C(F)(F)F, the Inhibition falls from 16.58% to 12.64%.

First: Cc1ncc(Cn2cc(CCCO)nn2)c(N)n1
Second: Cc1ncc(Cn2cc(CCCCO)nn2)c(N)n1
The Inhibition of the first is higher: 11% for the first, 0.74% for the second.

Going from CN(C)CCCNC(=O)c1cc(NC(=O)c2cc(NC(=O)c3ccc(C(=O)O)cc3)cn2C)cn1C.O=C(O)C(F)(F)F to CC(=O)Nc1cc(C(=O)Nc2cc(C(=O)Nc3cc(C(=O)NCCCN(C)C)n(C)c3)n(C)c2)n(C)c1.O=C(O)C(F)(F)F, the Inhibition falls from 12.13% to 7.38%.

Compared with CC(=O)Nc1cc(C(=O)Nc2cc(C(=O)Nc3cc(C(=O)NCCCN(C)C)n(CCC(C)C)c3)n(C)c2)n(C)c1.O=C(O)C(F)(F)F, CC(C)CCn1cc(NC(=O)c2cc(NC(=O)c3cc(NC(=N)c4ccccc4)cn3C)cn2C)cc1C(=O)NCCCN(C)C.O=C(O)C(F)(F)F.O=C(O)C(F)(F)F is higher in Inhibition: -7.31% for the first, 3.8% for the second.

Going from CC(C)n1cc(NC(=O)c2cc(NC(=O)c3cc(NC=O)cn3C(C)C)cn2C)cc1C(=O)NCCCN(C)C.O=C(O)C(F)(F)F to CN(C)CCCNC(=O)c1cc(NC(=O)c2cc(NC(=O)c3cc(NC(=N)N)cn3C)cn2C)cn1C.O=C(O)C(F)(F)F.O=C(O)C(F)(F)F, the Inhibition rises from 5.76% to 15.1%.

First: CCOC(=O)c1cc(NC(=O)c2cc(NC(=O)c3sc(N)nc3C(F)(F)F)cn2C)cn1C
Second: CCOC(=O)c1cc(NC(=O)c2cc(NC(=O)c3nc(N)sc3C(C)C)cn2C)cn1C
The Inhibition of the first is higher: 9.83% for the first, 2.73% for the second.

Compared with COc1cccc(C(=N)Nc2cc(C(=O)Nc3cc(C(=O)NCCC(=N)N)n(C)c3)n(C)c2)c1.O=C(O)C(F)(F)F.O=C(O)C(F)(F)F, COc1cccc(C(=N)Nc2cc(C(=O)Nc3cc(C(=O)Nc4cc(C(=O)NCCCN(C)C)n(C)c4)n(C)c3)n(C)c2)c1.O=C(O)C(F)(F)F.O=C(O)C(F)(F)F is higher in Inhibition: 3.2% for the first, 18.12% for the second.

Compared with Cc1ncc(Cn2cc(CO)nn2)c(N)n1, Cc1ncc(Cn2cc(CCO)nn2)c(N)n1 is higher in Inhibition: 8.41% for the first, 8.75% for the second.

Going from Cn1cc(NC(=O)c2cc(NC(=O)c3sc(N)nc3C(F)(F)F)cn2C)cc1C(=O)NCCC(=N)N.O=C(O)C(F)(F)F to COC(=O)CCC(=O)Nc1cc(C(=O)Nc2cc(C(=O)NCCC(=N)N)n(C)c2)n(C)c1.O=C(O)C(F)(F)F, the Inhibition rises from 1.67% to 16.06%.

First: CC(C)c1sc(N)nc1C(=O)Nc1cc(C(=O)NCCN2CCOCC2)n(C)c1.O=C(O)C(F)(F)F
Second: CC(C)CCc1sc(N)nc1C(=O)Nc1cc(C(=O)Nc2cc(C(=O)NCCN3CCOCC3)n(C)c2)n(C)c1.O=C(O)C(F)(F)F
The Inhibition of the first is lower: 5.27% for the first, 10.41% for the second.

Compared with Cn1cc(NC(=O)c2cc(NC(=O)c3cc(NC(=O)c4ccc(Cl)cc4Cl)cn3C)cn2C)cc1C(=O)NCCN1CCOCC1.O=C(O)C(F)(F)F, CC(=N)Nc1cc(C(=O)Nc2cc(C(=O)Nc3cc(C(=O)NCCN4CCOCC4)n(C)c3)n(C)c2)n(C)c1.O=C(O)C(F)(F)F.O=C(O)C(F)(F)F is higher in Inhibition: 1.34% for the first, 12.92% for the second.

Going from CCOC(=O)c1cc(NC(=O)c2cc(NC(=O)c3nc(N)sc3CCC(C)C)cn2C)cn1C to CN(C)CCCNC(=O)c1cc(NC(=O)c2cc(NC(=O)c3cc4ccccc4cn3)cn2C)cn1C.O=C(O)C(F)(F)F, the Inhibition rises from -4% to 14.38%.

First: Cc1ccc(S(=O)(=O)NCCc2cn(Cc3cnc(C)nc3N)nn2)cc1
Second: Cc1ncc(Cn2cc(CCCN)nn2)c(N)n1.Cl
The Inhibition of the first is higher: 11.44% for the first, 9.36% for the second.

First: CN(C)CCCNC(=O)c1cc(NC(=O)c2cc(NC(=O)c3cc(NC(=N)c4ccccc4)cn3C)cn2C)cn1C.O=C(O)C(F)(F)F.O=C(O)C(F)(F)F
Second: COc1cccc(C(=N)Nc2cc(C(=O)Nc3cc(C(=O)Nc4cc(C(=O)NCCCN5CCOCC5)n(C)c4)n(C)c3)n(C)c2)c1.O=C(O)C(F)(F)F.O=C(O)C(F)(F)F
The Inhibition of the first is higher: 12.1% for the first, 9.48% for the second.

Compared with Cc1ncc(Cn2cc(CC(N)C(=O)O)nn2)c(N)n1.Cl (centres undefined), Cc1ncc(Cn2cc(CCC(=O)O)nn2)c(N)n1.O=C(O)C(F)(F)F is higher in Inhibition: 4.28% for the first, 6.53% for the second.

Going from Cc1ncc(CNc2cccc(F)c2)c(N)n1 to Cc1ncc(CNc2ccccc2F)c(N)n1, the Inhibition falls from 11.7% to 1.69%.

Compared with COc1cccc(/C=C/c2ccc(C(=O)Nc3cc(C(=O)Nc4cc(C(=O)NCCN(C)C)n(C)c4)n(C)c3)cc2)c1.O=C(O)C(F)(F)F, COc1ccc(/C=C(/C(=O)Nc2cc(C(=O)Nc3cc(C(=O)NCCCN(C)C)n(C)c3)n(C)c2)c2ccc(OC)cc2)cc1.O=C(O)C(F)(F)F is lower in Inhibition: 2.16% for the first, 0.8% for the second.

Compared with COc1ccc(CC(=O)Nc2cc(C(=O)Nc3cc(C(=O)Nc4cn(CCCN(C)C)cn4)n(C)c3)n(C)c2)cc1.O=C(O)C(F)(F)F, CC(C)c1sc(NC(=O)c2cc(NC(=O)c3cc(NC(=O)c4cnc(Cl)c(Cl)c4)cn3C)cn2C)nc1C(=O)NCCCN(C)C.O=C(O)C(F)(F)F is lower in Inhibition: 13.94% for the first, 1.37% for the second.

Compared with Cn1cc(NC(=O)c2cc(NC(=O)CCC(=O)O)cn2C)cc1C(=O)NCCN1CCOCC1.O=C(O)C(F)(F)F, COC(=O)CCC(=O)Nc1cc(C(=O)Nc2cc(C(=O)NCCN3CCOCC3)n(C)c2)n(C)c1.O=C(O)C(F)(F)F is lower in Inhibition: 20.05% for the first, 8.35% for the second.

Compared with CCOC(=O)CCC(NC(=O)c1ccc(NCc2cn(Cc3cnc(C)nc3N)nn2)cc1)C(=O)OCC (centres undefined), CC(=O)N(C(C)=O)c1cc(C(=O)Nc2cc(C(=O)NCCC(=N)N)n(C)c2)n(C)c1.O=C(O)C(F)(F)F is lower in Inhibition: 10.67% for the first, 5.84% for the second.

Work on Cc1ncc(CO)c(N)n1 yielded an Inhibition of -2.97%.
